Source: patent US20150086515A1
No constants are given. Whether binding was seen depends on the method and setting. Some binding calls cover weakened binding; strength is not graded here.

Chains of the proteins cited; added tags and fusions are not shown. Lines headed by an entry give the natural chain unless they say otherwise; changes in a name come on top.
UniProt P06756: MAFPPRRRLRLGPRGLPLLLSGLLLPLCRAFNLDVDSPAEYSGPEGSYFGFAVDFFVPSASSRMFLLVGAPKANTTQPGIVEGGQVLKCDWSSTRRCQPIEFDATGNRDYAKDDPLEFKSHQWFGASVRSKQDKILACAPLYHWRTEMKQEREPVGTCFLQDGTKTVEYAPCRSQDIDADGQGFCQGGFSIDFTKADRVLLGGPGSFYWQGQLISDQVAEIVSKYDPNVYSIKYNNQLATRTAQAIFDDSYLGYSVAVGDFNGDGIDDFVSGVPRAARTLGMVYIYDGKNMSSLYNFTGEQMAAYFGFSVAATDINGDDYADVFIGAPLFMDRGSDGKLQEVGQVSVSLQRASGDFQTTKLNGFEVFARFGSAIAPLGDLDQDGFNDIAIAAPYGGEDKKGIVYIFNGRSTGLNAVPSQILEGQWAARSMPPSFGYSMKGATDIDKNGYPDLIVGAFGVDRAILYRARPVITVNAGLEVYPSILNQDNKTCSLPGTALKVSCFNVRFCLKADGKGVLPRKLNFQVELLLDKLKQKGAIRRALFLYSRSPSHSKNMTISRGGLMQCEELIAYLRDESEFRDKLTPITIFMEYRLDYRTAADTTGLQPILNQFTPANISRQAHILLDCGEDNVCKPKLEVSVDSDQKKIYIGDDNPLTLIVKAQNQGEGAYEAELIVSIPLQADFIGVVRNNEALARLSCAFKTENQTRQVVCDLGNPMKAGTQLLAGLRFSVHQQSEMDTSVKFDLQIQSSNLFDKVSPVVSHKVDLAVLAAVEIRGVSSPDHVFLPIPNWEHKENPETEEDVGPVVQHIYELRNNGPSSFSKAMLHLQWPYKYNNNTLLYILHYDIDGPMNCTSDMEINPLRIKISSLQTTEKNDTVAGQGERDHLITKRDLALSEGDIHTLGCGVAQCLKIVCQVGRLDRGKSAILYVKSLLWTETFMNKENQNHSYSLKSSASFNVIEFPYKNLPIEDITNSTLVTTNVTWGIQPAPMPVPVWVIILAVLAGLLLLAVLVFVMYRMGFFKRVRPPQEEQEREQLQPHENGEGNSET
UniProt P05106: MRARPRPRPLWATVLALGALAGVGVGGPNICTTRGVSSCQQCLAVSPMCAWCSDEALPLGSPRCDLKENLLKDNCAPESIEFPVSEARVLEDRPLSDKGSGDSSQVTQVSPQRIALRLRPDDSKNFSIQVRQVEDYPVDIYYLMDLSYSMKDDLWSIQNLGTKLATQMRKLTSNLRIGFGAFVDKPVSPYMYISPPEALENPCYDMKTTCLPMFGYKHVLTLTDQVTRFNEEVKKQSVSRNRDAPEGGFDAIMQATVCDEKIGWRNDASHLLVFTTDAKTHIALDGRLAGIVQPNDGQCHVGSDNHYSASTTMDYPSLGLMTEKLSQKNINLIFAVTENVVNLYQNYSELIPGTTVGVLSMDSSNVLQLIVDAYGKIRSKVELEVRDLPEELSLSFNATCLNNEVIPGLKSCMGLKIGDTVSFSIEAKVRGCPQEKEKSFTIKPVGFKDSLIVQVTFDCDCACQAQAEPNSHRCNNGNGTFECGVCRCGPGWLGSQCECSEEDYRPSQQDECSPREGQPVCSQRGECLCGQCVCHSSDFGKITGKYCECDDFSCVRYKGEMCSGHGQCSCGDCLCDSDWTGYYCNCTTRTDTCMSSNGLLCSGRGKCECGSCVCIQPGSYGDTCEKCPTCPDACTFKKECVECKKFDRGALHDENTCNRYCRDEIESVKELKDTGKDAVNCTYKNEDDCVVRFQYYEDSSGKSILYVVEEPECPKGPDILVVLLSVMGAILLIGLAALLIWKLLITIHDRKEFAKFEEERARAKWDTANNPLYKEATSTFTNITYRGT
UniProt P01375: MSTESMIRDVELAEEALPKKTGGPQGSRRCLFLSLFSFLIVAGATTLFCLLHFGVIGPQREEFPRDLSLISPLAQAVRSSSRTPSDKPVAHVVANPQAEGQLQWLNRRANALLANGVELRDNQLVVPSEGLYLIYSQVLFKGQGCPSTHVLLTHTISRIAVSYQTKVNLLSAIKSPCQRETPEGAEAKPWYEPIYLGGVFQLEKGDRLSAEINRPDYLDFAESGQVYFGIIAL

Molecular target: integrin αvβ3 on U87MG human glioblastoma cells (human) (UniProt P06756+P05106)
Test: cell adhesion assay: TNF-RGD4C captured on an anti-TNF antibody-coated plate, adherent U87MG cells stained with crystal violet, A600 read

binding: binds
Substance: secreted wild-type TNF-RGD4C fusion protein (from UniProt P01375 77-233) (ligand)
